The other results are listed elsewhere or left out. The main result of the screen is listed elsewhere. These columns were measured beside it and carry no call. The list favours compounds with an active or inconclusive main result. Words in brackets tell the shape of the fitted curve; partial curves, single points and poor fits give uncertain potencies.
Experiment: qHTS Assay for Lipid Storage Modulators in Drosophila S3 Cells;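 on cell number change: cells counted by Cell Tracker Red CMTPX staining in the red channel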
Details: BODIPY lipid droplet fluorescence, 18-24 h; for cell number change: measured here: cell count max response, cells fed with added oleic acid
In short: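 Laser-scanning cytometry quantifies lipid droplet accumulation (500–530 nm total intensity; droplet/cell object ratio) in oleic acid-fed (400 uM added) Drosophila S3 cells treated with a concentration series. 20 uM Triacsin C defined 100% inhibition.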

[1] = measured here: lipid fluorescence (Fed channel) AC50, cells fed with added oleic acid
[2] = measured here: cell number channel AC50, cells fed with added oleic acid

Cc1nc2sc(C(c3cccc(F)c3)N3CCOCC3)c(O)n2n1 (configuration not stated)
AC50 [1]: 0.82 µM [falling, single point]

CCn1c(C)nc2c(=O)oc3ccccc3c21
cell number change: 9.7% | AC50 [1]: 6.51 µM [rising, single point]

O=C(CCNC(=O)c1ccc([N+](=O)[O-])cc1)Nc1nccs1
cell number change: -1.91% | AC50 [2]: 2.59 µM [falling, partial curve] | AC50 [1]: 6.51 µM [falling, partial curve, poor fit]

NC(=O)N=Nc1c(O)n(Cc2ccccc2)c2ccc(Br)cc12
cell number change: -40.2% | AC50 [2]: 13 µM [falling, partial curve, poor fit]

O=C(O)c1cccc2c1C(=O)N(C1CCCCC1)C2
cell number change: 14%

O=C(CCN1CCN(c2ccccc2)CC1)NNC(=S)Nc1ccccc1Cl
cell number change: 17.5%

C/C(N)=C(/C#N)C(=O)CSc1nc2ccccc2[nH]1
AC50 [2]: 0.0231 µM [rising, full curve, poor fit]

N#C/C(=C\c1coc2ccc(O)cc2c1=O)C(=O)Nc1nc2ccccc2s1
cell number change: -46.5% | AC50 [2]: 16.4 µM [falling, single point] | AC50 [1]: 18.4 µM [falling, single point]

CS(=O)(=O)Nc1ccc(C2=NN(C(=O)c3ccco3)C(c3ccccc3)C2)cc1 (configuration not stated)
AC50 [1]: 0.92 µM [falling, full curve, poor fit]

Cc1cc(C)c(S(=O)(=O)c2ccc(C(C)(C)C)cc2)c(Cl)n1
cell number change: 35.9% | AC50 [2]: 20.6 µM [rising, single point] | AC50 [1]: 6.51 µM [falling, single point]

Cc1ccc(NC(=O)C2CCCN2C(=O)Oc2ccccc2)cc1 (configuration not stated)
cell number change: 4.14% | AC50 [1]: 7.31 µM [rising, full curve, poor fit]

CCOc1ccc(S(=O)(=O)N2CCC(C(=O)Nc3cc(S(C)(=O)=O)ccc3Cl)CC2)cc1
cell number change: 0.448% | AC50 [2]: 0.0058 µM [rising, full curve, poor fit] | AC50 [1]: 0.146 µM [rising, full curve, poor fit]

O=C(O)C1C2CCC(O2)C1C(=O)Nc1ccc(F)cc1 (configuration not stated)
cell number change: 52.9% | AC50 [2]: 23.1 µM [rising, partial curve, poor fit]

CCCc1nc2ccccc2c(=O)n1/N=C/c1ccc(O)cc1
cell number change: -30.4% | AC50 [2]: 20.6 µM [falling, single point] | AC50 [1]: 0.00517 µM [rising, full curve, poor fit]

CCn1cc(C(=O)NNC(=O)c2ccc(Cl)cc2)c(=O)c2ccc(C)nc21
cell number change: 1.23% | AC50 [1]: 29.1 µM [rising, single point]

O=C(CN1C(=O)c2ccccc2S1(=O)=O)Nc1ccc(S(=O)(=O)N2CCCC2)cc1
cell number change: 0.704% | AC50 [1]: 29.1 µM [falling, single point]

CC(C)(C)c1ccccc1OCC(=O)NCCC(=O)O
cell number change: 16.5% | AC50 [1]: 29.1 µM [rising, single point]

NC1=NC(=O)/C(=C/c2cccc(-c3ccc(S(N)(=O)=O)cc3)c2)S1
cell number change: 43.4% | AC50 [2]: 14.6 µM [rising, partial curve, poor fit]

CCOc1cccc(C(=O)NNC(=O)CCC(=O)O)c1
cell number change: -4.93% | AC50 [1]: 0.651 µM [falling, full curve]

Cn1c(=O)c(C(=O)Nc2ncccc2O)c(O)c2ccccc21
cell number change: -59.4% | AC50 [2]: 16.4 µM [falling, single point] | AC50 [1]: 20.6 µM [falling, single point]

COc1ccccc1NS(=O)(=O)c1cccc(C(=O)N/N=C(\C)c2ccc3c(c2)OCCO3)c1
cell number change: 7.41%

O=C(CSc1ccc(Cl)cc1)Nc1nnc(-c2ccco2)o1
cell number change: 8.06% | AC50 [1]: 10.3 µM [falling, partial curve]

N#Cc1ccc(Oc2cccnc2)cc1C#N
AC50 [1]: 0.731 µM [rising, single point]

CC(=O)N1CCN(C(=O)CSc2cc(C)c(Br)cc2C)CC1
cell number change: 20.5%

O=C(COc1ccc(Cl)cc1Br)NC(=O)NC1CCCC1
cell number change: -60.8% | AC50 [2]: 18.4 µM [falling, partial curve]

O=S(=O)(c1ccc(Oc2ncnc3scc(-c4ccccc4)c23)cc1)N1CCOCC1
cell number change: -26.4% | AC50 [1]: 2.06 µM [rising, partial curve]

O=C(CCC(=O)N(CC(=O)NC1CCCCC1)c1ccccc1F)Nc1nccs1
cell number change: 154% | AC50 [2]: 29.1 µM [rising, single point] | AC50 [1]: 29.1 µM [rising, single point]

CSc1cccc(NC(=O)C2C3C=CC4(O3)C2C(=O)N(CCCN2CCOCC2)C4C(=O)NC2CCCCC2)c1 (configuration not stated)
cell number change: 18.5% | AC50 [1]: 29.1 µM [falling, partial curve, poor fit]

CCCN(CCC)S(=O)(=O)c1ccc(C(=O)N2CC3CCC(CC3)C2)cc1
cell number change: -52.4% | AC50 [2]: 5.17 µM [falling, full curve] | AC50 [1]: 29.1 µM [falling, single point]

Cc1ccc(-c2nc3ccccc3o2)cc1NC(=S)NC(=O)/C=C/c1ccco1
cell number change: -28.7% | AC50 [1]: 32.6 µM [falling, single point]

CCn1ncc(Cl)c1C(=O)NC(=S)Nc1c(C)cc(C)cc1[N+](=O)[O-]
cell number change: 47.7% | AC50 [2]: 2.31 µM [rising, partial curve] | AC50 [1]: 4.11 µM [rising, partial curve]

O=C(NCc1ccc(F)cc1)c1ccccc1OCc1ccccc1
cell number change: 61.3% | AC50 [2]: 10.3 µM [rising, partial curve] | AC50 [1]: 9.2 µM [rising, partial curve]

Cn1c(=O)c(S(=O)(=O)C(C)(C)C)c(O)c2ccccc21
cell number change: -59.1% | AC50 [2]: 29.1 µM [falling, single point] | AC50 [1]: 29.1 µM [falling, single point]

CC(C)(C)c1ccc(NC(=O)CNC2CCCc3ccccc32)cc1 (configuration not stated)
cell number change: -73% | AC50 [2]: 1.46 µM [falling, partial curve] | AC50 [1]: 0.231 µM [falling, full curve, poor fit]

CCOC(=O)c1cc(NC(=O)c2cnccn2)cc(C(=O)OCC)c1
cell number change: 1.76% | AC50 [1]: 29.1 µM [rising, single point]

CC(OC(=O)CNC(=O)c1cccs1)C(=O)Nc1ccc(S(N)(=O)=O)cc1 (configuration not stated)
cell number change: -12.4% | AC50 [2]: 6.51 µM [falling, single point] | AC50 [1]: 8.2 µM [rising, partial curve]

COc1ccccc1C(=O)N(Cc1ccco1)C1CCS(=O)(=O)C1 (configuration not stated)
cell number change: 0.144% | AC50 [1]: 29.1 µM [falling, single point]

COc1ccccc1NC(=O)NCCN1CCN(c2cccc(Cl)c2)CC1
cell number change: 25% | AC50 [2]: 6.51 µM [rising, single point] | AC50 [1]: 10.3 µM [falling, partial curve]

COC(=O)c1ccc(N2C(=O)C3CC(C)=C(C)CC3C2=O)cc1 (configuration not stated)
cell number change: -8.31% | AC50 [2]: 3.26 µM [rising, single point] | AC50 [1]: 0.461 µM [rising, partial curve, poor fit]

Brc1ccc(-c2cn3nc4c(nc3n2)CCCC4)cc1
cell number change: 38.1% | AC50 [2]: 8.2 µM [rising, partial curve, poor fit]

COC(=O)C(Cc1ccccc1)NC(=O)CNC(=O)c1ccc(Br)o1 (configuration not stated)
cell number change: 4.13%

O=C(O)/C=C/C(=O)Nc1ccc(-n2nccc2C(F)(F)F)cc1
cell number change: 28.6%

COc1ccc(-c2cn(-c3ccc(C)cc3C)c(=S)[nH]2)cc1OC
cell number change: -68.2% | AC50 [2]: 23.1 µM [falling, single point] | AC50 [1]: 23.1 µM [falling, partial curve, poor fit]

S=C(Nc1cccc(Cl)c1Cl)N1CCCC1
cell number change: 0.578% | AC50 [1]: 29.1 µM [falling, single point]

CCCCCc1c2c(cc(O)c1C(=O)O)OC(=O)c1c(cc(OC)cc1C(=O)CCCC)O2
cell number change: -26.2% | AC50 [1]: 29.1 µM [falling, single point]

Cc1c[nH]c(=O)c([N+](=O)[O-])c1
cell number change: 20%

Cc1ccc(OCC(=O)N(Cc2ccc(C)o2)C2CCS(=O)(=O)C2)cc1 (configuration not stated)
cell number change: 11.9%

Cc1c(C(=O)NCc2c(F)cc(F)cc2F)oc2ccc(S(=O)(=O)N3CCOCC3)cc12
AC50 [1]: 0.013 µM [falling, full curve, poor fit]

COc1ccc(COC(=O)C2=C(C)NC(=O)NC2c2ccc(O)c(OC)c2)cc1 (configuration not stated)
cell number change: 5.44% | AC50 [1]: 16.4 µM [rising, single point]

Cc1sc2ncnc(OCC(=O)NC(C)C(C)C)c2c1C (configuration not stated)
cell number change: 6.95% | AC50 [1]: 0.651 µM [rising, partial curve, poor fit]

Cc1ccc(CNS(=O)(=O)c2cc3c(cc2C)NC(=O)CO3)cc1
AC50 [1]: 4.61 µM [rising, partial curve]

O=C1CCCC/C1=C\Nc1ccc(C(=O)O)c(O)c1
cell number change: 14.1% | AC50 [1]: 6.51 µM [falling, single point]

O=C(NCCN1CCOCC1)c1ccc(Cl)c(S(=O)(=O)N2CCCCC2)c1
cell number change: 0.495% | AC50 [2]: 0.259 µM [rising, partial curve, poor fit] | AC50 [1]: 14.6 µM [rising, partial curve]

CC1CCN(CC(=O)NCc2ccccc2)CC1
cell number change: -182% | AC50 [2]: 29.1 µM [falling, single point]

CC(C)(C)n1nc2c(c1NC(=O)c1cccc(C(F)(F)F)c1)CS(=O)C2 (configuration not stated)
cell number change: -0.952% | AC50 [1]: 0.00461 µM [falling, full curve, poor fit]

Cc1ccccc1NC(=O)COC(=O)CCc1c[nH]c2ccccc12
cell number change: -6.16% | AC50 [1]: 0.291 µM [rising, full curve, poor fit]

Cc1cccc(OCc2nnc(SCC(=O)Nc3cccc(C(=O)N4CCOCC4)c3)n2C)c1C
cell number change: -25% | AC50 [1]: 18.4 µM [falling, partial curve]

Reference: PubChem BioAssay AID2685 (National Center for Advancing Translational Sciences (NCATS), 2010)
